In the supplement of paper PMC10849652:
Some of the results follow.

Chains of the proteins cited; added tags and fusions are not shown. Lines headed by an entry give the natural chain unless they say otherwise; changes in a name come on top.
UniProt P49247: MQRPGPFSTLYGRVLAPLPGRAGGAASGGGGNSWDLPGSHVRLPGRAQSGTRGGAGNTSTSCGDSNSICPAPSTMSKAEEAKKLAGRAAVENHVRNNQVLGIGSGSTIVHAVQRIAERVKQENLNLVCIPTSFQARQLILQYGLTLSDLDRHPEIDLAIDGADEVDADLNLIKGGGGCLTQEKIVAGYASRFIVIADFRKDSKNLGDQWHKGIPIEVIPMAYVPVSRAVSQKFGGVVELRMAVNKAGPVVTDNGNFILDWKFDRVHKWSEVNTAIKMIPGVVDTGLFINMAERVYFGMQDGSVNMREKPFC
UniProt Q9UBF6, whole entry, looked up: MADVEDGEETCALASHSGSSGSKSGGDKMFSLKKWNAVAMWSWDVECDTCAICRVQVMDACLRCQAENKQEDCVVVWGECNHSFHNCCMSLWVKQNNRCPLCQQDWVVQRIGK
UniProt O75818: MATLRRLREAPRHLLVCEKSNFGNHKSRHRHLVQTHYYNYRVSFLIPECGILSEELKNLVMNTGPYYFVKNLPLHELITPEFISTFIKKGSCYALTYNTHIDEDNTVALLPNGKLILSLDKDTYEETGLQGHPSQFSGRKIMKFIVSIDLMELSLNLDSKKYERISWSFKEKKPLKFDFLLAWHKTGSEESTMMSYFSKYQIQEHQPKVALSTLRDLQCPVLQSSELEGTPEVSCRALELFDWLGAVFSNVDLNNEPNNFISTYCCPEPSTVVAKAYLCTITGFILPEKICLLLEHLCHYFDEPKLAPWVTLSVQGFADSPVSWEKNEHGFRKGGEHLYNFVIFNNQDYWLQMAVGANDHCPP
UniProt Q92766: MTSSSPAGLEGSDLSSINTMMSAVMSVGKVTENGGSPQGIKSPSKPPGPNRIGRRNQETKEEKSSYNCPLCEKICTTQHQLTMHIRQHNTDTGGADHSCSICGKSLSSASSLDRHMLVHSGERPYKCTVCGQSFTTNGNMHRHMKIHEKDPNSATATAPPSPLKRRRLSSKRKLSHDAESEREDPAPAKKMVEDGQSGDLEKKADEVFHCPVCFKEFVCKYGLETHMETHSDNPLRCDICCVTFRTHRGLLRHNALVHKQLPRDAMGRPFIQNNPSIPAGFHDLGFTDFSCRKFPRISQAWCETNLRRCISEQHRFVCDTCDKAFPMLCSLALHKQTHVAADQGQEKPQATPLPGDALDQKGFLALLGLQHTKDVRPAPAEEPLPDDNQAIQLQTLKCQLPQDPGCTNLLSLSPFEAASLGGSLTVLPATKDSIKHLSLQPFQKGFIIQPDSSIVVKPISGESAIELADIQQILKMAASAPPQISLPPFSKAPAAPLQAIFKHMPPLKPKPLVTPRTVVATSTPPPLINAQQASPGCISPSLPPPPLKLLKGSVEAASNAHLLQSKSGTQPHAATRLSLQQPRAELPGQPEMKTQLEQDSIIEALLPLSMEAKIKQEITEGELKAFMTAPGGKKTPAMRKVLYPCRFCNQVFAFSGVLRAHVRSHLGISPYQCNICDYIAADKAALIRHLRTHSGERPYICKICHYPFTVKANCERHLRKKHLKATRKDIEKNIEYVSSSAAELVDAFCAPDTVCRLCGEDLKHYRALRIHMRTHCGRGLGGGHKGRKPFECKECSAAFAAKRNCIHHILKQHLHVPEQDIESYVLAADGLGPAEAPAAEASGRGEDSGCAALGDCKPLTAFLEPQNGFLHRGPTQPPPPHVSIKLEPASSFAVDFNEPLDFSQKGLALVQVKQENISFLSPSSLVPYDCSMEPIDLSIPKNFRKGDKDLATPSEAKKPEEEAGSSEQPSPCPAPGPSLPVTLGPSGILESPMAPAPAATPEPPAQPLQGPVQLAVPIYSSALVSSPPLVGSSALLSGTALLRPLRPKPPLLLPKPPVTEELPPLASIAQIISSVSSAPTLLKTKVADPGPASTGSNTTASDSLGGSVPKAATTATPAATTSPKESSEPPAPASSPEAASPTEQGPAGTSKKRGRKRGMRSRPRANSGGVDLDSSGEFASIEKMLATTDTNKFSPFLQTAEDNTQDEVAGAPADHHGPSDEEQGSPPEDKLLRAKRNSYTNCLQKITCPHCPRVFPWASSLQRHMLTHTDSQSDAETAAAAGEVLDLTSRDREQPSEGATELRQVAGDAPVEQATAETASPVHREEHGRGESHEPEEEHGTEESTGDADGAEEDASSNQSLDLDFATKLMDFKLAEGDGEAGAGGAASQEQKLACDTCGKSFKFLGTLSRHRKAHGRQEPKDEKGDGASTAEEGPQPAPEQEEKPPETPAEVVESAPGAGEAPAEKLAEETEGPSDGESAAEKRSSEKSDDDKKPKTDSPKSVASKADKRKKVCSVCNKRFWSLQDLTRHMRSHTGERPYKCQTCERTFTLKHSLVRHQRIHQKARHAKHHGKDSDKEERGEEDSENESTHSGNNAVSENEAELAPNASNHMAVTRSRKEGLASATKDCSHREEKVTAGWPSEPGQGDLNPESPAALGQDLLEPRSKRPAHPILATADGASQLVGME
UniProt P23921: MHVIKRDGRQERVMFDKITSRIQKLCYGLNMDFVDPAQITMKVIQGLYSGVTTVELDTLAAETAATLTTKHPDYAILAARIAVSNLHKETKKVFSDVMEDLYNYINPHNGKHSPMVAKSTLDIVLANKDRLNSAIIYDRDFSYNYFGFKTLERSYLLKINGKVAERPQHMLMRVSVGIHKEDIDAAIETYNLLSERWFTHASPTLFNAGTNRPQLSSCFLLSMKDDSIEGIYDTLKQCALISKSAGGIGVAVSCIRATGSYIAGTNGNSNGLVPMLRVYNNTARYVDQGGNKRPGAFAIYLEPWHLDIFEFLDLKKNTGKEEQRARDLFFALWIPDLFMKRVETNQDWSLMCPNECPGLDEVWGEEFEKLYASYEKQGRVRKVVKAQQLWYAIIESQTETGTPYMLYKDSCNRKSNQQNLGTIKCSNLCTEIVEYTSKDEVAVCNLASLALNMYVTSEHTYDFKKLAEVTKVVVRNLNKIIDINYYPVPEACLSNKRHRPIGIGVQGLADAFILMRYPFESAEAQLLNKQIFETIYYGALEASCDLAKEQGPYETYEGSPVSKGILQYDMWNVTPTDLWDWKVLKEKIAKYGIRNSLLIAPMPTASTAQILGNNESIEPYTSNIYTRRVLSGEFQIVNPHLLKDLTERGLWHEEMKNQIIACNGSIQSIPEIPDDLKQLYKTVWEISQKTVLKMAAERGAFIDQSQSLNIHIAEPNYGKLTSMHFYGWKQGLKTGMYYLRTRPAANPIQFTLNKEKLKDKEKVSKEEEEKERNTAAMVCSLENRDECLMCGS
UniProt Q7L523, whole entry, looked up: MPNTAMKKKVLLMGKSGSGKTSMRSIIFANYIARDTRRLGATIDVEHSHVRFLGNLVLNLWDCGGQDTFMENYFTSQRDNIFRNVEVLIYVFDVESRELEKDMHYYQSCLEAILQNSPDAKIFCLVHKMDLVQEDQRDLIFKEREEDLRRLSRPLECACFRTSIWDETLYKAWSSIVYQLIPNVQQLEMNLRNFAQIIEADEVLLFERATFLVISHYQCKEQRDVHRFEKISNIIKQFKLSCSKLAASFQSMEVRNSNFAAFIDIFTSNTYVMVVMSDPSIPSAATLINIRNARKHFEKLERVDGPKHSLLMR
UniProt Q96BH1: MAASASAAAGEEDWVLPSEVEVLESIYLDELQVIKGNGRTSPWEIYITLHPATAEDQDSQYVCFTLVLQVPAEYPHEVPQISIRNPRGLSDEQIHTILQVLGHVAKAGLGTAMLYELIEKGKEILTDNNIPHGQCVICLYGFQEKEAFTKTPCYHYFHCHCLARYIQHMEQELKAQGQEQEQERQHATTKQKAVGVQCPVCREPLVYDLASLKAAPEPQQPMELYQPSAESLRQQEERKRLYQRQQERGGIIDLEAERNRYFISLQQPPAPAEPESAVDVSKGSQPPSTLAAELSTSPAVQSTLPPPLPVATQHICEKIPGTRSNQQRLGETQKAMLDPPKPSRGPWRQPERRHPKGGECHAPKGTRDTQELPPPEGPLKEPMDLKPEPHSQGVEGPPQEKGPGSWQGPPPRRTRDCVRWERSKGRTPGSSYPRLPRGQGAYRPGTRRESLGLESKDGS
UniProt P78345: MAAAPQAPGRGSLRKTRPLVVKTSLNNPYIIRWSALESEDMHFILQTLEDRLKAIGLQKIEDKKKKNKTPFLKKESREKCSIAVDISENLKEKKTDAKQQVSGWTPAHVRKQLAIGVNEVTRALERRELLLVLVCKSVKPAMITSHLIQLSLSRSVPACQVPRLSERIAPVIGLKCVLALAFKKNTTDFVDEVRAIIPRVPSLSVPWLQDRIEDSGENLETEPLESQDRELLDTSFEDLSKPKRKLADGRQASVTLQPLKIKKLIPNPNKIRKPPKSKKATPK
UniProt Q9BUL9: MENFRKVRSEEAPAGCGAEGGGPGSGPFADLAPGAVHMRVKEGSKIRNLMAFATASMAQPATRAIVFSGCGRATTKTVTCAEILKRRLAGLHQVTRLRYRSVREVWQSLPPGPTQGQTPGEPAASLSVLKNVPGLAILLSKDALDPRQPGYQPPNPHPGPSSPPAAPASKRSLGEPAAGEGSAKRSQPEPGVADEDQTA
UniProt P31350, whole entry, looked up: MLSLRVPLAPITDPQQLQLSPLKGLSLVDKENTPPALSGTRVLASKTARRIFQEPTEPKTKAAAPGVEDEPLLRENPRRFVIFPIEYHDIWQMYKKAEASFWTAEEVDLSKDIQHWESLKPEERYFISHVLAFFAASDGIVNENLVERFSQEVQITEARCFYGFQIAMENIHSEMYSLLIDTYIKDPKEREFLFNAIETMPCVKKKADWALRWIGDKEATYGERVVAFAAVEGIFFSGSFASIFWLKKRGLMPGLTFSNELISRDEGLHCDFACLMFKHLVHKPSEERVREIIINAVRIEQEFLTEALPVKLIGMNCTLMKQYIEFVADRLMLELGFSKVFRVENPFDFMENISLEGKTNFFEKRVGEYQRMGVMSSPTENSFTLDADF
UniProt Q15349, whole entry, looked up: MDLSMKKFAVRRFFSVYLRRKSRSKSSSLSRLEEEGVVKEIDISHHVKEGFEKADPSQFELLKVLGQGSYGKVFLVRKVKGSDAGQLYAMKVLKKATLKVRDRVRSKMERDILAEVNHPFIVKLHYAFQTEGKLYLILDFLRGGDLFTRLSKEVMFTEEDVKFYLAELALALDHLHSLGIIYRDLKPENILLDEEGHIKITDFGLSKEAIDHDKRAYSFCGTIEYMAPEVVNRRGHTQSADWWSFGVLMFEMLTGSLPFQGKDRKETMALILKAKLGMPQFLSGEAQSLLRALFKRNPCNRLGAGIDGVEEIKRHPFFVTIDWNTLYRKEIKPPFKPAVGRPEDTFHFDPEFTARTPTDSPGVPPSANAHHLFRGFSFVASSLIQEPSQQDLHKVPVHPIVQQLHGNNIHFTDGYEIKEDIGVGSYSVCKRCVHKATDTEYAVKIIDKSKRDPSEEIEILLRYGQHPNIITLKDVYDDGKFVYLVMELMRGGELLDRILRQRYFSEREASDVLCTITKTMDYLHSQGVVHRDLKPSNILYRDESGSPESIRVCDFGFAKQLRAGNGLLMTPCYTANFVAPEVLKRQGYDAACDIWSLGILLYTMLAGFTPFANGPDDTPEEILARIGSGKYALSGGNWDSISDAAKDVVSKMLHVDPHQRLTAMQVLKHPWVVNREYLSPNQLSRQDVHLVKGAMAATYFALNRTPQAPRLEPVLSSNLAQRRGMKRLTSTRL
UniProt Q9NQG5: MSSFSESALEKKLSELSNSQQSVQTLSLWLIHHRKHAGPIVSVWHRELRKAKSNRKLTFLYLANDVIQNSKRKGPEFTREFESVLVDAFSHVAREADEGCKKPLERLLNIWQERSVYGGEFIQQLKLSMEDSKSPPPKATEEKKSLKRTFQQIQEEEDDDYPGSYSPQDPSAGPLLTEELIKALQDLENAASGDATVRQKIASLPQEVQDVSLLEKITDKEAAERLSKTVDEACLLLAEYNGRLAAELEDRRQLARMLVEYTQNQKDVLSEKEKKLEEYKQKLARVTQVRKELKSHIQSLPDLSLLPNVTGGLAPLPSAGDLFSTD
UniProt Q5VZM2, whole entry, looked up: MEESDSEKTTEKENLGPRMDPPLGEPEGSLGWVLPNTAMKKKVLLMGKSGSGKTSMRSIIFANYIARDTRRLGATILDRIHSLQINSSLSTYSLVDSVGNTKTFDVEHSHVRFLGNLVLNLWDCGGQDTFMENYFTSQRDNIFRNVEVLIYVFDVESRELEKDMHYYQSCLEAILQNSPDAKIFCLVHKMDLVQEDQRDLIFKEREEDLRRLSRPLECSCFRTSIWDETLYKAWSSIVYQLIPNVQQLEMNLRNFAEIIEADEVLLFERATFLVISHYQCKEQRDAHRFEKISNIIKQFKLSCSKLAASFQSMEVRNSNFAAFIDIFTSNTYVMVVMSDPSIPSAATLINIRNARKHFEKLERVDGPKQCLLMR

Assays:
Assay in all cases: log2 fold change, soluble protein after heating vs DMSO (PISA); higher = thermal stabilisation; K562 cells, 10 uM, 30 min; active = over 0.2 and 3.5 SD of the protein, either way, in both replicates (recomputed)
[1] = compound: CS(=O)(=O)c1ccc(-c2cnc(N)c(C(=O)Nc3ccccc3)n2)cc1
Summary of the method: (§1)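 K562 cells at 2×10^6 cells/mL were treated for 30 min with 10 μM compound, and aliquots were heated for 3 min over 48°C-58°C before pooling. Extraction used PBS with 0.5% NP-40 at 4°C, and soluble protein was the supernatant after 21,000xg for 90 min, measured by TMTpro 16plex LC-MS/MS with channel sums equalised. Thermal stability values, relative to control samples and from duplicates, are log2 fold changes.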

[2] = compound: C[C@@H](Oc1cc(-c2cnn(C3CCNCC3)c2)cnc1N)c1c(Cl)ccc(F)c1Cl [crizotinib]
Summary of the method: as §1

[3] = compound: C[C@@H]1COCCN1C2=NC(=NC(=C2)C3(CC3)S(=O)(=O)C)C4=C5C=CNC5=CC=C4
Summary of the method: as §1

[4] = compound: C[C@H](C1=CC=C(C=C1)C(=O)NC2=C3C=CNC3=NC=C2)N
Summary of the method: as §1

[5] = compound: C[C@H](Nc1ncnc2nc[nH]c12)c1cc2cccc(Cl)c2c(=O)n1-c1ccccc1 [duvelisib]
Summary of the method: as §1

[6] = compound: Cc1cc(Nc2cc(CN3CCOCC3)c3nc(C)c(Cc4ccc(Cl)cc4F)n3n2)n[nH]1 [gandotinib]
Summary of the method: as §1

[7] = compound: Cc1cc(Nc2cc(N3CCN(C)CC3)nc(Sc3ccc(NC(=O)C4CC4)cc3)n2)n[nH]1 [tozasertib]
Summary of the method: as §1

[8] = compound: Cc1cc(SCc2sc(-c3ccc(C(F)(F)F)cc3)nc2C)ccc1OCC(=O)O
Summary of the method: as §1

[9] = compound: Cc1ccc(-n2nc(C(C)(C)C)cc2NC(=O)Nc2ccc(OCCN3CCOCC3)c3ccccc23)cc1 [doramapimod]
Summary of the method: as §1

[10] = compound: Cc1ccc(C(=O)N(CCCN)[C@@H](c2nc3cc(Cl)ccc3c(=O)n2Cc2ccccc2)C(C)C)cc1 [ispinesib]
Summary of the method: as §1

Measured: log2 fold change

RPIA (UniProt P49247)
inactive: [1] -0.023 | [2] 0.039 | [3] 0.005 | [4] -0.077 | [5] 0.065 | [6] 0.006 | [7] -0.012 | [8] -0.014 | [9] 0.025 | [10] 0.019

RNF7 (UniProt Q9UBF6)
inactive: [1] -0.011 | [2] 0.113 | [3] 0.033 | [4] 0.016 | [5] 0.049 | [6] 0.027 | [7] -0.06 | [8] -0.051 | [9] 0.025 | [10] 0.027

RPP40 (UniProt O75818)
inactive: [1] -0.006 | [2] 0.069 | [3] -0.043 | [4] 0.006 | [5] 0.004 | [6] -0.044 | [7] 0.025 | [8] -0.028 | [9] -0.006 | [10] 0.057

RREB1 isoform 2 (UniProt Q92766)
inactive: [1] 0.048 | [2] -0.321 | [3] 0.014 | [4] 0.091 | [5] 0.082 | [6] -0.209 | [7] 0.176 | [8] -0.052 | [9] 0.171 | [10] -0.08

RPS17 (UniProt P08708)
inactive: [1] -0.063 | [2] 0.01 | [3] -0.358 | [4] 0.209 | [5] -0.092 | [6] 0.133 | [7] -0.005 | [8] 0.024 | [9] 0.032 | [10] -0.083

RRM1 (UniProt P23921)
inactive: [1] 0.021 | [2] -0.051 | [3] 0.067 | [4] -0.045 | [5] 0.052 | [6] -0.098 | [7] -0.062 | [8] 0.01 | [9] -0.051 | [10] 0.058

RRAGA (UniProt Q7L523)
inactive: [1] 0.058 | [2] -0.177 | [3] -0.033 | [4] -0.141 | [5] 0.672 | [6] 0.365 | [7] 0.051 | [8] 0.238 | [9] 0.01 | [10] 0.118

Fetched one by one from above, 2 records:
RREB1 isoform 2 (UniProt Q92766)
inactive: [1] 0.048 | [2] -0.321 | [3] 0.014 | [4] 0.091 | [5] 0.082 | [6] -0.209 | [7] 0.176 | [8] -0.052 | [9] 0.171 | [10] -0.08

RPP40 (UniProt O75818)
inactive: [1] -0.006 | [2] 0.069 | [3] -0.043 | [4] 0.006 | [5] 0.004 | [6] -0.044 | [7] 0.025 | [8] -0.028 | [9] -0.006 | [10] 0.057

The listing continues.

RPSA (UniProt P08865)
inactive: [1] 0.023 | [2] 0.076 | [3] -0.083 | [4] 0.097 | [5] -0.023 | [6] 0.043 | [7] -0.021 | [8] -0.032 | [9] 0.016 | [10] -0.045

RPL13A (UniProt P40429)
inactive: [1] -0.149 | [2] 0.113 | [3] -1.22 | [4] 0.654 | [5] -0.46 | [6] 0.369 | [7] 0.068 | [8] 0.041 | [9] 0.383 | [10] -0.292

RNF25 (UniProt Q96BH1)
inactive: [1] 0.008 | [2] 0.013 | [3] 0.078 | [4] 0.024 | [5] 0.047 | [6] -0.01 | [7] 0.014 | [8] 0.02 | [9] -0.006 | [10] -0.01

RPL36 (UniProt Q9Y3U8)
inactive: [1] -0.151 | [2] 0.011 | [3] -1.09 | [4] 0.6 | [5] -0.269 | [6] 0.45 | [7] 0.031 | [8] 0.059 | [9] 0.273 | [10] -0.281

RPL5 (UniProt P46777)
inactive: [1] -0.016 | [2] 0.016 | [3] -0.52 | [4] 0.315 | [5] -0.172 | [6] 0.249 | [7] -0.001 | [8] 0.012 | [9] 0.097 | [10] -0.092

RPS29 (UniProt P62273)
inactive: [1] -0.043 | [2] 0.039 | [3] -0.191 | [4] 0.148 | [5] -0.175 | [6] 0.285 | [7] 0.032 | [8] 0 | [9] -0.172 | [10] -0.293

RPP38 (UniProt P78345)
inactive: [1] -0.02 | [2] 0.055 | [3] 0.073 | [4] 0.075 | [5] -0.008 | [6] 0.1 | [7] 0 | [8] -0.051 | [9] 0.057 | [10] 0.017

RPL27A (UniProt P46776)
inactive: [1] -0.021 | [2] 0.054 | [3] -0.93 | [4] 0.477 | [5] -0.301 | [6] 0.356 | [7] 0.077 | [8] -0.027 | [9] 0.262 | [10] -0.257

RPP25 (UniProt Q9BUL9)
inactive: [1] -0.035 | [2] -0.034 | [3] -0.116 | [4] -0.02 | [5] 0 | [6] 0.158 | [7] 0.007 | [8] -0.005 | [9] -0.071 | [10] -0.071

RRBP1 (UniProt Q9P2E9)
inactive: [1] -0.067 | [2] 0.048 | [3] -0.588 | [4] 0.502 | [5] -0.209 | [6] 0.302 | [7] 0.059 | [8] -0.002 | [9] 0.29 | [10] -0.294

RRM2 isoform 2 (UniProt P31350)
inactive: [1] 0.022 | [2] 0.02 | [3] 0.005 | [4] -0.096 | [5] -0.02 | [6] -0.02 | [7] -0.028 | [8] 0.005 | [9] -0.022 | [10] 0.101

RPA2 isoform 3 (UniProt P15927)
inactive: [1] -0.011 | [2] 0.017 | [3] -0.097 | [4] 0.015 | [5] 0.056 | [6] 0.033 | [7] -0.004 | [8] 0.018 | [9] -0.051 | [10] -0.024

RPS12 (UniProt P25398)
inactive: [1] -0.041 | [2] 0.078 | [3] -0.098 | [4] 0.165 | [6] 0.124 | [8] -0.011 | [9] 0.012 | [10] 0.017

ROCK2 (UniProt O75116)
active: [4] 0.392
inactive: [1] 0.033 | [2] -0.041 | [3] 0.026 | [6] -0.049 | [8] 0.004 | [9] 0.007 | [10] -0.049

RPS9 (UniProt P46781)
inactive: [1] -0.075 | [2] 0.02 | [3] -0.401 | [4] 0.278 | [6] 0.188 | [8] 0.024 | [9] 0.174 | [10] -0.04

RPS6KA2 isoform 2 (UniProt Q15349)
inactive: [1] 0.026 | [2] -0.148 | [3] 0.128 | [4] -0.057 | [6] -0.048 | [8] 0.063 | [9] -0.057 | [10] -0.058

RPRD1B (UniProt Q9NQG5)
inactive: [1] -0.104 | [2] 0.072 | [3] 0.062 | [4] -0.042 | [6] -0.227 | [8] 0.062 | [9] -0.044 | [10] 0.039

RPS6KA3 (UniProt P51812)
inactive: [1] 0.023 | [2] -0.107 | [3] 0.024 | [4] -0.177 | [6] -0.019 | [8] 0.032 | [9] -0.066 | [10] -0.017

RPS19 (UniProt P39019)
inactive: [1] -0.12 | [2] 0.023 | [3] -0.309 | [4] 0.182 | [6] 0.201 | [8] 0.018 | [9] 0.05 | [10] -0.081

RRAGB (UniProt Q5VZM2)
inactive: [1] 0.016 | [2] -0.131 | [3] 0.01 | [4] -0.123 | [6] -0.008 | [8] -0.011 | [9] 0.015 | [10] -0.065

RNPEP (UniProt Q9H4A4)
inactive: [1] 0.037 | [2] -0.081 | [3] 0.081 | [4] -0.034 | [6] -0.053 | [8] 0.083 | [9] -0.031 | [10] -0.086

RPS16 (UniProt P62249)
inactive: [1] -0.107 | [2] 0 | [3] -0.353 | [4] 0.214 | [6] 0.172 | [8] -0.023 | [9] 0.055 | [10] -0.088
